# Test results from the supplement of paper PMC4683952.
# This is one part of the list. Rule as the data show it: active = 2 or more and inactive = the rest. Most values lie within the scatter of the assay; repeated measurements hardly agree.
# System: Lgr5 (MarsCy1-Lgr5-EGFP, U2OS)
# Experiment: cell-surface Lgr5 expression (SCi1 fluorescence, background-subtracted) relative to WT DMSO (fold of DMSO control); higher = more Lgr5 at the plasma membrane
# Details: U2OS MarsCy1-Lgr5-EGFP stable; treatment time: overnight; library: ActiProbe-5K (TimTec); 25 µM
row,SMILES,cell-surface Lgr5 expression
1,O=S(=O)(c1ccc2ccccc2c1)N1CCc2cc(Br)ccc21,inactive: 0.627
2,C#CCOc1cccc(/C=N/Nc2nncn2N)c1,inactive: 1.06
3,O=[N+]([O-])c1cc(C(F)(F)F)cc(Cl)c1F,inactive: 1.08
4,Cc1nc2ccccc2nc1CCl,inactive: 1.12
5,O=c1[nH]c(=O)c2cc3c(=O)[nH]c(=O)c3cc12,inactive: 1.09
6,OC[C@@H]1O[C@H](O[C@H]2O[C@H](CO[C@@H]3O[C@H](CO)[C@H](O)[C@H](O)[C@H]3O)[C@@H](O)[C@H](O)[C@H]2O)[C@H](O)[C@H]1O,inactive: 1.07
7,CS/C(N)=N/N=C/c1c(O)ccc2ccccc12,inactive: 0.857
8,C#CC(C)(CC)NC(=O)c1cc2ncc(Br)cn2n1 (configuration not stated),inactive: 0.94
9,Fc1ccc(CN2COc3cc4c(cc3C2)OCN(Cc2ccc(F)cc2)C4)cc1,inactive: 1.45
10,O=C(CSc1nnc[nH]1)Nc1nccs1,inactive: 0.957
11,C1=C(Cc2ccccc2)C(c2ccccc2)SC(c2ccccc2)=C1/C=N\c1ccccc1 (configuration not stated),inactive: 0.824
12,Cn1c(SCC(=O)O)nc2sc3c(c2c1=O)CCCC3,inactive: 1.41
13,CC(=O)C1C(=O)CC(c2ccco2)CC1=O (configuration not stated),inactive: 1.1
14,Fc1cnc(Nc2ccccc2)nc1Nc1ccccc1,inactive: 0.672
15,CCOC(=O)C1=C(C)N=c2s/c(=C/c3cccs3)c(=O)n2C1c1cccs1 (configuration not stated),inactive: 0.779
16,Fc1ccc(NC(=S)NCC2CCCO2)cc1Cl (configuration not stated),inactive: 1.27
17,C/N=C1\S/C(=C/c2cccn2-c2ccc(N(C)C)cc2)C(=O)N1C,inactive: 1.08
18,Cc1nn(Cc2noc(C(=O)NCC3CCCO3)n2)c(C)c1Br (configuration not stated),inactive: 0.923
19,CC(=O)c1c(NCc2ccco2)oc(C)cc1=O,inactive: 1.02
20,COC(=O)C1(C(F)(F)F)N=C2Sc3ccccc3N2C(=O)N1 (configuration not stated),inactive: 1.11
21,O=[N+]([O-])c1ccc(-[n+]2nc(-c3ccccc3)nn2-c2ccccc2)cc1.[Br-],inactive: 0.949
22,Cc1nc2sc(C#N)c(N)c2c(C)c1Cl,inactive: 1.07
23,CC1(C)OC(=O)N(CC2CCCO2)C1(C)O (configuration not stated),inactive: 1.11
24,c1(N\N=C(\C)C)nccc2c1cccc2,inactive: 1.46
25,O=C1CSC2(C(=O)Nc3ccccc32)N1c1ccc2c(c1)oc1ccccc12 (configuration not stated),inactive: 1.06
26,CS(=O)(=O)c1ccccc1,inactive: 1.14

row,SMILES,cell-surface Lgr5 expression
1,COc1ccccc1OCCSc1nc2ccccc2o1,inactive: 0.956
2,Nc1nonc1/C(=N\O)N1CCCC1,inactive: 1.22
3,Cc1cc(C)c2c(C)cc(Cl)nc2c1,inactive: 1.69
4,Nc1ccc(S(=O)(=O)Nc2ccc3cn[nH]c3c2)cc1,inactive: 0.858
5,Cc1cc(O)c(C(C)(C)C)cc1Sc1cc(C(C)(C)C)c(O)cc1C,inactive: 0.656
6,CN(c1nc2ccccn2c(=O)c1/C=C1/SC(=S)N(C2CCS(=O)(=O)C2)C1=O)C1CCCCC1 (configuration not stated),inactive: 1.59
7,CCCCc1ccc(C(C2C(=O)CC(C)(C)CC2=O)C2C(=O)CC(C)(C)CC2=O)s1,inactive: 1.09
8,CN(C)c1c2c(c(C#N)c3nc4ccccc4n13)CCC2,inactive: 1.07
9,O=[N+]([O-])c1ccn(CCl)n1,inactive: 1.21
10,Oc1ccc2oc3c(c2c1)CCCC3,inactive: 0.677
11,Nc1nc(S)c2ncn(C3OC(CO)C(O)C3O)c2n1 (configuration not stated),inactive: 0.487
12,Nc1sc2c(c1CO)CCCC2,inactive: 1.33
13,N#CC1=C(N)SC(c2cccs2)C(C#N)=C1N (configuration not stated),inactive: 1.12
14,CN1N=C(C(=O)O)CCC1=O,inactive: 1.29
15,CC(C)(O)c1cn2ccccc2n1,inactive: 1.21
16,CC1CCN(Cn2nc(-c3ccco3)n(C)c2=S)CC1,inactive: 1.11
17,O=C(Nc1nccs1)C12CC3CC(CC(C3)C1)C2,inactive: 0.83
18,CN(C)S(=O)(=O)N1CCN(Cc2ccc3c(c2)OCO3)CC1,inactive: 0.985
19,CCn1nc(C)c(C=O)c1C,inactive: 1.08
20,N#Cc1ccc(-c2ccncc2)nc1SCc1cccnc1,inactive: 1.2
21,Nc1nc(SCc2ccc(Cl)cc2)ns1,inactive: 1.11
22,CC1(C)Nc2ccc(C(c3ccccc3)(c3ccccc3)c3ccccc3)cc2-c2c1ssc2=S,inactive: 1.13
23,Brc1ccc2nc3c(n2c1)CCCC3,inactive: 1.07
24,O=C1NC2C=CC=CC2/C1=N\Nc1nc2ccccc2c(=O)n1-c1ccccc1 (configuration not stated),inactive: 1.31
25,CCOC(=O)c1n[nH]c2c([N+](=O)[O-])n[nH]c12,inactive: 1.3
26,Cc1c(-c2cc(C(=O)[O-])no2)cnn1C,inactive: 0.999

# 3 entries out of the list, sorted by formula weight, smallest number first:
row,SMILES,cell-surface Lgr5 expression
14,CN1N=C(C(=O)O)CCC1=O,inactive: 1.29
8,C#CC(C)(CC)NC(=O)c1cc2ncc(Br)cn2n1 (configuration not stated),inactive: 0.94
22,CC1(C)Nc2ccc(C(c3ccccc3)(c3ccccc3)c3ccccc3)cc2-c2c1ssc2=S,inactive: 1.13
